For at least one compound, name, drawing or mass did not settle the structure.
Columns and labels:
Type in all cases: biochemical
Odc1p [1] = target: T1, Odc1p (Saccharomyces cerevisiae, UniProt Q03028); assay: Dependence on internal substrate of [14C]oxoglutarate uptake into proteoliposomes reconstituted with recombinant Odc1p; conditions: for [14C]oxoglutarate uptake with the internal substrate (in words): proteoliposomes preloaded with various substrates
T1 construct: made in house; host or cells: S. cerevisiae odc1Δodc2Δ (YPH499 background) carrying pYES2-based pODC1; purified from mitochondria on Ni-NTA agarose
T1 sequence (Q03028 1-310): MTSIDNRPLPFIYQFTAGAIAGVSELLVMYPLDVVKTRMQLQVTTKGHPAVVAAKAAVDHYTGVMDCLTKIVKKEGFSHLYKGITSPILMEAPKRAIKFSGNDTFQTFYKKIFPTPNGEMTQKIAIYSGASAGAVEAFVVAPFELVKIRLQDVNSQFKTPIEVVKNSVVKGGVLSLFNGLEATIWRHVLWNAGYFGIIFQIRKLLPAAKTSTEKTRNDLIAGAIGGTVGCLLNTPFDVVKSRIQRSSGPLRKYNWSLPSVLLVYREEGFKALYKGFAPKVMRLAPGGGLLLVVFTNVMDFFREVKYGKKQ
Experimental: (§1) Reconstitution of the ODC proteins into liposomes—Purified ODC proteins were reconstituted by cyclic removal of the detergent with a hydrophobic column (13). The composition of the initial mixture used for reconstitution was: 200 μl of purified isoform (0.3-0.4 μg of protein), 70 μl of 10% Triton X-114, 100 μl of 10% phospholipids in the form of sonicated liposomes, 20 mM oxoglutarate (except where otherwise indicated), 10 mM Pipes (pH 7.0), 0.7 mg of cardiolipin (Sigma) and water to a final volume of 700 μl. These components were mixed thoroughly, and the mixture was recycled 13 times through an Amberlite column (Supelco) (3.0 cm×0.5 cm) preequilibrated with a buffer containing 10 mM Pipes (pH 7.0) and with the substrate at the same concentration as in the starting mixture. All operations were performed at 4° C., except the passages through Amberlite, which were carried out at room temperature.
(§2) External substrate was removed from proteoliposomes on a Sephadex G-75 column preequilibrated with buffer F (50 mM NaCl and 10 mM PIPES, pH 7.0). Transport at 25° C. was started by adding [^14C]oxoglutarate (unless otherwise indicated) to the proteoliposomes, and terminated by addition of 30 mM pyridoxal 5′-phosphate and 10 mM bathophenanthroline (the “inhibitor-stop” method (13)). In controls, inhibitors were added with the labelled substrate. The external radioactivity was removed on Sephadex G-75 and the internal radioactivity was measured. […] The initial rate of transport was calculated in mmol/min per g protein from the time course of isotope equilibration (13). Various other transport activities were also assayed by the inhibitor-stop method. For efflux measurements, the internal substrate pool of the proteoliposomes was made radioactive by carrier-mediated exchange equilibration (13) with 0.1 mM [^14C]oxoglutarate added at high specific radioactivity. After 60 min, the residual external radioactivity was removed by passing the proteoliposomes again through a column of Sephadex G-75. Efflux was started by adding unlabelled external substrate or buffer F alone and terminated by adding the inhibitors indicated above.
(§3) The substrate specificity of purified Odc1p and Odc2p was investigated further by measuring the uptake of [^14C]oxoglutarate into proteoliposomes which had been preloaded with various substrates.
(§4) Proteoliposomes were preloaded internally with various substrates (concentration, 20 mM). Transport was started by adding [^14C]oxoglutarate (final concentration, 0.6 mM) and terminated after 45 seconds.

Odc2p [2] = target: T2, Odc2p (Saccharomyces cerevisiae, UniProt Q99297); assay: Dependence on internal substrate of [14C]oxoglutarate uptake into proteoliposomes reconstituted with recombinant Odc2p; conditions: for [14C]oxoglutarate uptake with the internal substrate (in words): proteoliposomes preloaded with various substrates
T2 construct: made in house; host or cells: S. cerevisiae odc1Δodc2Δ (YPH499 background) carrying pYES2-based pODC2; purified from mitochondria on Ni-NTA agarose
T2 sequence (Q99297 1-307): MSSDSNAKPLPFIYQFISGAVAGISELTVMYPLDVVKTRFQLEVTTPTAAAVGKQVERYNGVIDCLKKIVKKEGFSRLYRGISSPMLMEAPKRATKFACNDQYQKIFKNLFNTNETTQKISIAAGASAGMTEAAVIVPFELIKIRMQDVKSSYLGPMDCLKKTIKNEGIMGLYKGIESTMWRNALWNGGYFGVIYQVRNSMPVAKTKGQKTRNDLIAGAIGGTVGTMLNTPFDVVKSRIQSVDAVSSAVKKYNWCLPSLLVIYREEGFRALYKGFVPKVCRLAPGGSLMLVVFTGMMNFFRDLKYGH
Experimental: as §1, §2, §3, §4

Odc1p [3] = target: T1, Odc1p; assay: Effect of inhibitors and external compounds on the [14C]oxoglutarate/oxoglutarate exchange by proteoliposomes reconstituted with Odc1p; conditions: 8 mM, 20 times greater than the substrate, data not shown
Experimental: FIG. 5. Effect of dicarboxylates and 2-oxodicarboxylates with different carbon chain length on the rate of [^14C]oxoglutarate uptake into proteoliposomes reconstituted with recombinant Odc1p. Proteoliposomes were preloaded with 20 mM oxoglutarate and reconstituted with recombinant Odc1p. Transport was initiated by the addition of 0.4 mM [^14C]oxoglutarate and terminated after 45 seconds. Oxalate, malonate, succinate, glutarate, adipate, pimelate, suberate (▪) and the corresponding 2-oxoacids (●) were added simultaneously with [1^4C]oxoglutarate at 4.0 mM concentration. […]
(§5) External substrate was removed from proteoliposomes on a Sephadex G-75 column preequilibrated with buffer F (50 mM NaCl and 10 mM PIPES, pH 7.0). […] The external radioactivity was removed on Sephadex G-75 and the internal radioactivity was measured. […] The initial rate of transport was calculated in mmol/min per g protein from the time course of isotope equilibration (13). […] For efflux measurements, the internal substrate pool of the proteoliposomes was made radioactive by carrier-mediated exchange equilibration (13) with 0.1 mM [^14C]oxoglutarate added at high specific radioactivity. After 60 min, the residual external radioactivity was removed by passing the proteoliposomes again through a column of Sephadex G-75. […]

Odc2p [4] = target: T2, Odc2p; assay: Effect of inhibitors and external compounds on the [14C]oxoglutarate/oxoglutarate exchange by proteoliposomes reconstituted with Odc2p; conditions: 8 mM, 20 times greater than the substrate, data not shown
Experimental: Reconstitution of the ODC proteins into liposomes—Purified ODC proteins were reconstituted by cyclic removal of the detergent with a hydrophobic column (13). The composition of the initial mixture used for reconstitution was: 200 μl of purified isoform (0.3-0.4 μg of protein), 70 μl of 10% Triton X-114, 100 μl of 10% phospholipids in the form of sonicated liposomes, 20 mM oxoglutarate (except where otherwise indicated), 10 mM Pipes (pH 7.0), 0.7 mg of cardiolipin (Sigma) and water to a final volume of 700 μl. […]
as §5

Odc2p [5] = target: T2, Odc2p; assay: Homoexchange of other substrates in proteoliposomes reconstituted with Odc2p; conditions: internal concentration 10 mM, external concentration 1 mM
Experimental: (§6) External substrate was removed from proteoliposomes on a Sephadex G-75 column preequilibrated with buffer F (50 mM NaCl and 10 mM PIPES, pH 7.0). Transport at 25° C. was started by adding [^14C]oxoglutarate (unless otherwise indicated) to the proteoliposomes, and terminated by addition of 30 mM pyridoxal 5′-phosphate and 10 mM bathophenanthroline (the “inhibitor-stop” method (13)). In controls, inhibitors were added with the labelled substrate. The external radioactivity was removed on Sephadex G-75 and the internal radioactivity was measured. […] The initial rate of transport was calculated in mmol/min per g protein from the time course of isotope equilibration (13). Various other transport activities were also assayed by the inhibitor-stop method. For efflux measurements, the internal substrate pool of the proteoliposomes was made radioactive by carrier-mediated exchange equilibration (13) with 0.1 mM [^14C]oxoglutarate added at high specific radioactivity. After 60 min, the residual external radioactivity was removed by passing the proteoliposomes again through a column of Sephadex G-75. Efflux was started by adding unlabelled external substrate or buffer F alone and terminated by adding the inhibitors indicated above. […]

Odc1p [6] = target: T1, Odc1p; assay: Homoexchange of other substrates in proteoliposomes reconstituted with Odc1p; conditions: internal concentration 10 mM, external concentration 1 mM
Experimental: as §6

[7] = proteoliposomes preloaded with 20 mM internal substrate, 0.6 mM [14C]oxoglutarate, 45 seconds

Compound | [14C]oxoglutarate transport (Odc1p [1]; [7]) | [14C]oxoglutarate uptake with the internal substrate (in words) (Odc1p [1]) | [14C]oxoglutarate transport (Odc2p [2]; [7]) | [14C]oxoglutarate uptake with the internal substrate (in words) (Odc2p [2]) | effect of oxomonocarboxylates on the rate of uptake of 0.4 mM oxoglutarate (in words) (Odc1p [3]) | effect of oxomonocarboxylates on the rate of uptake of 0.4 mM oxoglutarate (in words) (Odc2p [4]) | homoexchange catalyzed by the proteoliposomes (in words) (Odc2p [5]) | homoexchange catalyzed by the proteoliposomes (in words) (Odc1p [6])
O=C(O)CC(=O)C(=O)O [Oxaloacetate] | 31.8 mmol/min per g protein | much lower activity | 5.5 mmol/min per g protein | much lower activity |  |  |  | 
CC(=O)C(=O)O [Pyruvate] |  | no exchange |  | no exchange | did not influence | did not influence |  | 
N[C@@H](CC(=O)O)C(=O)O [aspartate] |  | no exchange |  | no exchange |  |  | did not catalyze homoexchanges | did not catalyze homoexchanges
